This passage reports binding results from article PMC9299575.

Assay [1] deals with signal transducer and activator of transcription 3 (STAT3), endogenous in chemoresistant HCT116 sublines (human (endogenous in HCT116 sublines)), P40763. Kind of assay: co-IP; lysates of MG132-pretreated HCT/FuR-SA14 cells precipitated with anti-STAT3 or anti-SA14 antibodies, Western blot for SA14 and STAT3. Conditions: remark: other sources report otherwise. Background: Immunoblotting shows a protein as a band on a membrane.

For assay [2], the target named is GST-tagged full-length STAT3 (GST-STAT3), P40763. Kind of assay: pull-down; GSH-agarose-bound recombinant GST-STAT3 incubated with whole-cell lysate from HCT/P cells; GSH-agarose-bound GST as control; only the target purified. Conditions: remark: other sources report otherwise.

Results are given in words; binding and its absence hold for the method and conditions named. In cells and extracts the contact can be indirect. Some results given as binding are weak or reduced against the parent protein; the word gives no strength. For some assays here: Where a sequence is shown, tags or fusion partners need not be part of it.

B1: S100A14 (SA14), stably overexpressed from pCMV6-Myc-DDK-SA14 in HCT/FuR-SA14 cells, Q9HCY8 1-104 (protein)
chain: MGQCRSANAEDAQEFSDVERAIETLIKNFHQYSVEGGKETLTPSELRDLVTQQLPHLMPSNCGLEEKIANLGSCNDSKLEFRSFWELIGEAAKSVKLERPVRGH
For the molecule B1, the binding result in assay [1] is listed as “binds”.

B2: S100A14 (SA14), endogenous in parental HCT116 (HCT/P) cells, Q9HCY8 1-104 (protein)
chain: MGQCRSANAEDAQEFSDVERAIETLIKNFHQYSVEGGKETLTPSELRDLVTQQLPHLMPSNCGLEEKIANLGSCNDSKLEFRSFWELIGEAAKSVKLERPVRGH
As for B2, in assay [2], the binding result is “binds”.
